From PubChem BioAssay AID2685 (National Center for Advancing Translational Sciences (NCATS), 2010)
The other results are listed elsewhere or left out. These are further read-outs of the screen, such as a control signal, another cell line or another target. No call is given for them. The list favours compounds with an active or inconclusive main result. Words in brackets tell the shape of the fitted curve; partial curves, single points and poor fits give uncertain potencies.

Assay: qHTS Assay for Lipid Storage Modulators in Drosophila S3 Cells;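 for cell number change: cells counted by Cell Tracker Red CMTPX staining in the red channel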
Details: BODIPY lipid droplet fluorescence, 18-24 h; for cell number change: measured here: cell count max response, cells fed with added oleic acid
In short: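 Laser-scanning cytometry quantifies lipid droplet accumulation (500–530 nm total intensity; droplet/cell object ratio) in oleic acid-fed (400 uM added) Drosophila S3 cells treated with a concentration series. 20 uM Triacsin C defined 100% inhibition.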

[1] = measured here: lipid fluorescence (Fed channel) AC50, cells fed with added oleic acid
[2] = measured here: cell number channel AC50, cells fed with added oleic acid

Row | Structure (SMILES) | cell number change [%] | AC50 [1] | AC50 [2]
1 | Cc1ccc(S(=O)(=O)Nc2cc(=O)[nH]c(SCc3ccccc3Cl)n2)cc1 | -2.88 | 8.2 µM [falling, partial curve, poor fit] | –
2 | CC(NS(=O)(=O)c1ccc(Br)cc1)C(=O)NCC1CCCO1 (stereo not drawn) | 10.4 | – | –
3 | COc1cc(/C=N/NC(=O)CNC(=O)c2ccco2)ccc1O | -16.5 | 18.4 µM [falling, single point] | –
4 | CCNC(=O)N1C(=O)C2(OCCO2)c2cc(Br)ccc21 | -5.81 | – | –
5 | COc1ccc(NC(=O)Cc2ccc(Cl)cc2)cc1NC(=O)c1ccco1 | 142 | 18.4 µM [rising, partial curve] | 20.6 µM [rising, partial curve]
6 | O=C(Cn1nnc(-c2cccs2)n1)NCc1cccs1 | -11.7 | – | 0.731 µM [falling, full curve, poor fit]
7 | Cc1cc2[nH]c(=O)c(=O)[nH]c2cc1S(=O)(=O)N1CCN(c2cccc(C(F)(F)F)c2)CC1 | 64.2 | 16.4 µM [rising, single point] | 23.1 µM [rising, single point]
8 | CCc1ccc(CN2CCC(Oc3ccc(C(=O)N4CCCC4)cc3)CC2)cc1 | 6.25 | 14.1 µM [rising, partial curve] | –
9 | CCOC(=O)c1c(-c2ccccc2)oc2cc(Br)c(O)cc12 | -22.5 | – | –
10 | CCn1c(/C=C/c2ccccc2Cl)nc2ccccc2c1=O | -0.346 | 2.59 µM [rising, partial curve] | –
11 | O=C(NC1=NCCS1)c1sc2cc(F)ccc2c1Cl | -15.1 | – | –
12 | CN(Cc1ccccc1)S(=O)(=O)c1ccc(Cl)c(C(=O)NCCc2ccccn2)c1 | – | – | 0.00461 µM [falling, full curve, poor fit]
13 | CCN1CCN(CCOCCOc2ccccc2)CC1 | -41.8 | 0.58 µM [falling, single point] | –
14 | COc1cccc(OC)c1OCCN1CCN(C(c2ccccc2)c2ccccc2)CC1 | -29.8 | – | –
15 | Cc1ccc(S(=O)(=O)N2CCN(C(=O)COC(=O)C3(C)CC3(Cl)Cl)CC2)c(C)c1 (stereo not drawn) | -5.31 | 29.1 µM [falling, single point] | –
16 | CSc1ccccc1NC(=O)Nc1ccc(Cl)cc1 | 43.4 | 6.51 µM [rising, single point] | 5.8 µM [rising, full curve]

Full records, looked up by structure.
Cc1ccc(S(=O)(=O)Nc2cc(=O)[nH]c(SCc3ccccc3Cl)n2)cc1 is listed with cell number change [%]: -2.88; AC50 [1]: 8.2 µM [falling, partial curve, poor fit]
CCn1c(/C=C/c2ccccc2Cl)nc2ccccc2c1=O is listed with cell number change [%]: -0.346; AC50 [1]: 2.59 µM [rising, partial curve]

(next part)

Row | Structure (SMILES) | cell number change [%] | AC50 [1] | AC50 [2]
17 | O=C(Nc1ccc(Br)cc1)C1CCN(C(=O)c2ccco2)CC1 | 10.9 | – | –
18 | COc1ccccc1-c1nc(C(N)=O)c2[nH]c(=O)n(-c3cccc(C)c3)c2n1 | -18.2 | 23.1 µM [rising, single point] | –
19 | CC1(C)NC(=O)N(CC(=O)OCC(=O)Nc2cccc(S(N)(=O)=O)c2)C1=O | 120 | 29.1 µM [rising, single point] | 29.1 µM [rising, single point]
20 | NC(=O)c1ccc(SCC(=O)OCC(=O)NCC2CCCCC2)c([N+](=O)[O-])c1 | 3.62 | – | 0.58 µM [falling, single point]
21 | O=C(CCCOc1ccccc1)N1CCN(c2ccccc2)CC1 | 50.6 | 6.51 µM [falling, single point] | 6.51 µM [falling, single point]
22 | NS(=O)(=O)c1ccc(NC(=O)COC(=O)CCc2nc3ccccc3c(=O)[nH]2)cc1 | -7.26 | 29.1 µM [rising, single point] | –
23 | COc1cc(OC)cc(C(=O)NCc2ccc3c(c2)OCO3)c1 | 16.2 | 3.66 µM [rising, partial curve, poor fit] | –
24 | O=C(c1ccco1)N1CCN(c2ncccn2)CC1 | – | 0.164 µM [rising, full curve, poor fit] | –
25 | OCCNCCCCOc1cccc(Br)c1 | – | 4.11 µM [rising, single point] | –
26 | Cc1cc(C(=O)CN2C(=O)C(=O)N(CC(C)C)C2=O)c(C)n1-c1ccccc1F | 54.1 | 23.1 µM [rising, partial curve] | 29.1 µM [rising, partial curve, poor fit]
27 | O=C(COc1ccc(Cl)cc1)NCCC1=CCCCC1 | -23.3 | 5.8 µM [rising, partial curve] | –
28 | COc1ccc(C)cc1NC(=O)c1nnn(Cc2cccc(F)c2)c1N | – | – | 0.206 µM [rising, full curve, poor fit]
29 | O=C(CN(CCO)c1ccccc1)Nc1ccc(Cl)c(S(=O)(=O)N2CCOCC2)c1 | 15.4 | 6.51 µM [falling, single point] | –
30 | Cc1ccc(S(=O)(=O)N(C)CC(=O)NCC(c2ccc(F)cc2)N2CCOCC2)cc1 (stereo not drawn) | 12.4 | 0.231 µM [rising, full curve, poor fit] | –
31 | CCCN1CCN(C(=O)c2oc3ccccc3c2NC(=O)C2CC2)CC1 | 23.3 | 29.1 µM [falling, single point] | –
